From patent publication US20220370440A1 (Lead Discovery Center GmbH, priority 2018, published 2022) come the findings set out here.

The chains behind the UniProt entries cited, without tags or fusion partners. A line that says so, or that is headed by a name, gives the form on record, which may keep a tag or linker. Residues count along the entry.
UniProt P00533, 25-1210 limits assumed: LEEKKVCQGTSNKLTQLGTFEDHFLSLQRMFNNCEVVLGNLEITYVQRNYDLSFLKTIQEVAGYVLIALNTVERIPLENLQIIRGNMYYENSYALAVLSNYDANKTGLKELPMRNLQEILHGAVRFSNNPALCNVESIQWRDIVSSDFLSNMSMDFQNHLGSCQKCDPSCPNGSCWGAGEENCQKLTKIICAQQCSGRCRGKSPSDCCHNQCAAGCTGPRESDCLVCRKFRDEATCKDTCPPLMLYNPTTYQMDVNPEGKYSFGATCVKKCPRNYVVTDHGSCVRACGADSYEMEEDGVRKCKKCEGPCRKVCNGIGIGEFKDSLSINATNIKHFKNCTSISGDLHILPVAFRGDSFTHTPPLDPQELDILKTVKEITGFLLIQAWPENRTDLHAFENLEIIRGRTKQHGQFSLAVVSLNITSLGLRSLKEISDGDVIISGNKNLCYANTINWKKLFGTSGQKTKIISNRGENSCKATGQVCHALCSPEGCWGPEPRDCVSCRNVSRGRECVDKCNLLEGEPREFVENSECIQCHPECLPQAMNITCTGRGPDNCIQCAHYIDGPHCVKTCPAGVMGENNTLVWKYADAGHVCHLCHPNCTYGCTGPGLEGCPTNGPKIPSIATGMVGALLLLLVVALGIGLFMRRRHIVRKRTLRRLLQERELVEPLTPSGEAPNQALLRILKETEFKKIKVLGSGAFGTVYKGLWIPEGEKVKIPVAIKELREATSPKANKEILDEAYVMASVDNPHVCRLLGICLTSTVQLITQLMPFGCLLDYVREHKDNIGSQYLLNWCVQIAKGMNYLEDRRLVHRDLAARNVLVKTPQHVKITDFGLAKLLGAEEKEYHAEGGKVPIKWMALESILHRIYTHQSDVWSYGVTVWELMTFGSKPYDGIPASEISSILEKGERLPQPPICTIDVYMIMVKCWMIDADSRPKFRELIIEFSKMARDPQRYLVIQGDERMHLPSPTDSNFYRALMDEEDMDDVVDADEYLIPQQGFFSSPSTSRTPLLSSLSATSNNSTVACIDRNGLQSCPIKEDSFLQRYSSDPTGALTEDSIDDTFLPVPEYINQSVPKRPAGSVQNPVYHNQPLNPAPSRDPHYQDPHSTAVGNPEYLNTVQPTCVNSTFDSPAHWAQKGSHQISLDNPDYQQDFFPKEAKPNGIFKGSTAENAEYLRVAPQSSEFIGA
UniProt P00533, 25-1210 T790M/L858R limits assumed: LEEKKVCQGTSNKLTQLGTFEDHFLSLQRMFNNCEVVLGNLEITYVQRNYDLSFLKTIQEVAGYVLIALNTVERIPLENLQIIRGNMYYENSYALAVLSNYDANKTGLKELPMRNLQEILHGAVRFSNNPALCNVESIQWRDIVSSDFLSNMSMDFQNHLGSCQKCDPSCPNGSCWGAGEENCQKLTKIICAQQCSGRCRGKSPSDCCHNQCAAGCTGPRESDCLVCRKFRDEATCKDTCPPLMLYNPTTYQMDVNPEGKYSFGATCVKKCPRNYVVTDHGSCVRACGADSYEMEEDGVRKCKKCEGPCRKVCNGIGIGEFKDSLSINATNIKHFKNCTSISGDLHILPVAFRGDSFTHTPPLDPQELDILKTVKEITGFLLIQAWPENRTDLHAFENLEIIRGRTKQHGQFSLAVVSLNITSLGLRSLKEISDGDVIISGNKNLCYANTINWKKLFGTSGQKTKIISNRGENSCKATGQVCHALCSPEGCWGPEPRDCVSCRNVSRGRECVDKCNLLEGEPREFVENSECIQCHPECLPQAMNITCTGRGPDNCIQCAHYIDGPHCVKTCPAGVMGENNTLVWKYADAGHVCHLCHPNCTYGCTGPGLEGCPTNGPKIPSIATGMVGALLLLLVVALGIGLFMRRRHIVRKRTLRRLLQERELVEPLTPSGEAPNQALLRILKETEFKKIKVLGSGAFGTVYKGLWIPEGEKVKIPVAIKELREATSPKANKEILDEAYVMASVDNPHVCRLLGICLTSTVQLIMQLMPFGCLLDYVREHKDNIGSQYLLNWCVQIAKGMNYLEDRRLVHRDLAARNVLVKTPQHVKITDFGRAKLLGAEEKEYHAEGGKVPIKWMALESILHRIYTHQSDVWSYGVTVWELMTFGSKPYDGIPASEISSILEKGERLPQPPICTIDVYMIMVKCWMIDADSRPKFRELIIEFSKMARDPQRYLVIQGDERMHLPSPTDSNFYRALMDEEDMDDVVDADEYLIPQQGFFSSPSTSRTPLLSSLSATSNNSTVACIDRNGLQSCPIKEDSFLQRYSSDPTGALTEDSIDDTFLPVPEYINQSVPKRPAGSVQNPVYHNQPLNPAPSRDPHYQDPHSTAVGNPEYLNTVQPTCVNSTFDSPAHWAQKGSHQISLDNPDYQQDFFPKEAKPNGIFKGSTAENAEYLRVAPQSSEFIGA
UniProt P00533, with tags, fused parts or gaps DUP771-773: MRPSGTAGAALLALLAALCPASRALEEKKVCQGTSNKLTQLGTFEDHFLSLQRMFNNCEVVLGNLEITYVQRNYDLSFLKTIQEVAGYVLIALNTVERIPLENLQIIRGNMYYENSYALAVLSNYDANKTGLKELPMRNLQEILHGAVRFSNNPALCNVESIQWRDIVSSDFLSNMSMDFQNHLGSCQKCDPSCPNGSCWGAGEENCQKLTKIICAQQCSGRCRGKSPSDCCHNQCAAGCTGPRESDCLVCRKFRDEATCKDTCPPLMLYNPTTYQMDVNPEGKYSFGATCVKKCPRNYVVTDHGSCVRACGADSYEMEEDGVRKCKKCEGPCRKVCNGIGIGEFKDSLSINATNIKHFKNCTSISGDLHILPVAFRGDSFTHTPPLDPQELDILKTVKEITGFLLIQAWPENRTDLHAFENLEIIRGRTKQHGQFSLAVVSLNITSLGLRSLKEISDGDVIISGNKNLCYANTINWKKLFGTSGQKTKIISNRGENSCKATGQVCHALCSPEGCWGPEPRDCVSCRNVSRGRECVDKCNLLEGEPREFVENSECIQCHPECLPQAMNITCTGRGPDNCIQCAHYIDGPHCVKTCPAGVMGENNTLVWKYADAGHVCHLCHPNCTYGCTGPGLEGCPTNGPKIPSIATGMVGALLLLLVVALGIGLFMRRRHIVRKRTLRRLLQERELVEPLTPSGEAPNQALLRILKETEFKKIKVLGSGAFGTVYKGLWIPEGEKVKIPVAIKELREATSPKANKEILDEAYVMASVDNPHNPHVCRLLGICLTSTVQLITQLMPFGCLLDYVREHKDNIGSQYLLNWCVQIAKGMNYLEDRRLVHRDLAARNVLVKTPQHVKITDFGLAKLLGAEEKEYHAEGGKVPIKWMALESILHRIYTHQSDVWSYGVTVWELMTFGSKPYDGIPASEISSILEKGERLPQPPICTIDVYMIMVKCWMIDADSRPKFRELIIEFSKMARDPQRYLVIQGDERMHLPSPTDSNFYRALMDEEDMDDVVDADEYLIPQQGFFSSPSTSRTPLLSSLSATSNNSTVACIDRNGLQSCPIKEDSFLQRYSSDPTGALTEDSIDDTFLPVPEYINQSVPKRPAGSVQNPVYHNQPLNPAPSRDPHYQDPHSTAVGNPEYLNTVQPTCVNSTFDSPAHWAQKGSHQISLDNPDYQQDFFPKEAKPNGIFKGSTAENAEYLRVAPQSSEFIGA
UniProt P04626, with tags, fused parts or gaps DUP772-775: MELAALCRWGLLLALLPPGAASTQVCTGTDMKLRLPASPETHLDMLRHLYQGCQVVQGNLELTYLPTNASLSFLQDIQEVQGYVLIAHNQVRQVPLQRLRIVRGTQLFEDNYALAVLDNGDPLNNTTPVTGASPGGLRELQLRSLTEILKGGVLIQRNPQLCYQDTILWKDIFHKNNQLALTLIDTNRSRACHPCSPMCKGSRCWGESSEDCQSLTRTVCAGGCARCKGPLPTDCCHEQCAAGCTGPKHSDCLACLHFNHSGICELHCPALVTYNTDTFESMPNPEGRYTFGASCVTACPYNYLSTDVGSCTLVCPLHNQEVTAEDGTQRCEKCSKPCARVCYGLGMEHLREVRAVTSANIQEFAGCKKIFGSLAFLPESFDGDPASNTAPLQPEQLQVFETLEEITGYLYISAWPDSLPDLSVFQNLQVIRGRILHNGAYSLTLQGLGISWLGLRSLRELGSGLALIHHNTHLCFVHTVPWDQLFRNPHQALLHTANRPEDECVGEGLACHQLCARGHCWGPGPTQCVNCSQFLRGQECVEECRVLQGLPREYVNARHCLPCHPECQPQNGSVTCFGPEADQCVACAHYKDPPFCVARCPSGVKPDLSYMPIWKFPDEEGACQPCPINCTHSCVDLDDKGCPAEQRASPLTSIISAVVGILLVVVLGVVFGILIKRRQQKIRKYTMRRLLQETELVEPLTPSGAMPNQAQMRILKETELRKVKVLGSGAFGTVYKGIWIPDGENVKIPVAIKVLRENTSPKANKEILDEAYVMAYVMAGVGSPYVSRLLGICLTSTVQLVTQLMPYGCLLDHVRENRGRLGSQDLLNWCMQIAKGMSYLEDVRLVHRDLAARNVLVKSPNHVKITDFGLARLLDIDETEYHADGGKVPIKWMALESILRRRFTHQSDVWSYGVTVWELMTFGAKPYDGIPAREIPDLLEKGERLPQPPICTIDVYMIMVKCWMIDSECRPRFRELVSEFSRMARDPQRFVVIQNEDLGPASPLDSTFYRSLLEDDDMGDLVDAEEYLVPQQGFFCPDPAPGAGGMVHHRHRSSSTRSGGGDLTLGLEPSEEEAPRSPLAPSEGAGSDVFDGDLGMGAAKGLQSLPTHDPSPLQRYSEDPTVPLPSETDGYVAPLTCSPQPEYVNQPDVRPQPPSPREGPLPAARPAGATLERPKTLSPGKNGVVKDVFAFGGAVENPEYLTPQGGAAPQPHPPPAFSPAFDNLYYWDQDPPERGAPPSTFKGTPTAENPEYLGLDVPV
UniProt P04626, with tags, fused parts or gaps INS775YVMA limits assumed: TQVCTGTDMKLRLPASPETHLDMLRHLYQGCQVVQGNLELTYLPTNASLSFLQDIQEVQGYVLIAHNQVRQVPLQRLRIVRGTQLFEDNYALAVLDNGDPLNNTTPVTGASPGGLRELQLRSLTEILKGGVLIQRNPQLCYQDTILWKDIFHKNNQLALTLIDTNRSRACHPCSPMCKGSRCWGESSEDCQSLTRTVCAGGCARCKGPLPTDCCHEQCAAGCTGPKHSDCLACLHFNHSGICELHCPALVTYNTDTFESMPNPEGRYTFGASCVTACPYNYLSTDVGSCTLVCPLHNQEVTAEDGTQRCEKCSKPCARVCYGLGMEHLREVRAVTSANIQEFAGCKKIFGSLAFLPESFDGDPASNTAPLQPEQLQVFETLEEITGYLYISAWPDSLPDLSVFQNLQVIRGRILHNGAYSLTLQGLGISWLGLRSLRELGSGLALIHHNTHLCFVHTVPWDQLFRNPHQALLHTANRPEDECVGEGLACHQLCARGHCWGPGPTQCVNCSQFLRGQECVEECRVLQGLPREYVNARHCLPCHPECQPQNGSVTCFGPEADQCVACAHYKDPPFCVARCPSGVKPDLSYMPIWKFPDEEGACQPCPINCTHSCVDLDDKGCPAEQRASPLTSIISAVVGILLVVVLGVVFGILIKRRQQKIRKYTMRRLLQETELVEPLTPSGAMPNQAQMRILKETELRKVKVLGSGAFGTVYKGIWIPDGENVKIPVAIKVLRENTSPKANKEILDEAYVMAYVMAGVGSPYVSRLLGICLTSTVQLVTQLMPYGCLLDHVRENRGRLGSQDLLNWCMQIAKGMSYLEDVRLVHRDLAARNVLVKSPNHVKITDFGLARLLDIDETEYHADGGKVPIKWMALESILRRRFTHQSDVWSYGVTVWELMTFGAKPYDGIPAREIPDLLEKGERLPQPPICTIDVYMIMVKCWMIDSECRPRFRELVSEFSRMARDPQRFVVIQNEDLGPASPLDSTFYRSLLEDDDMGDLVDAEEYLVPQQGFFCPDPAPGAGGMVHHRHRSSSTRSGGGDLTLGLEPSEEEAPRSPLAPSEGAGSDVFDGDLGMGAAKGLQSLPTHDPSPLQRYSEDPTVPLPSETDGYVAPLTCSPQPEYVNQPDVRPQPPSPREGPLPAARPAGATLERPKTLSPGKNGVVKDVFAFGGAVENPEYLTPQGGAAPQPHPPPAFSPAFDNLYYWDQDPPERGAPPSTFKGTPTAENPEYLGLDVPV

In one series the test system is A431. The experiment in a line: A431 CellTiter-Glo. Conditions: read-out: A431 CTG IC50, 72 h compound incubation. Here is the method:
(§1) 2. Measurement of Cellular Activity
(§2) The CellTiter-Glo Luminescent Cell Viability Assay (Promega) is a homogeneous method of determining the number of viable cells in culture. It is based on quantification of ATP, indicating the presence of metabolically active cells. Cells are seeded on day 1 at cell numbers that assure assay linearity and optimal signal intensity. After incubation for 24 h in humidified chambers at 37° C. and 5% CO2, compounds in DMSO are added at different concentrations. Cells are further incubated for 72 h at 37° C. and 5% CO2. Cells treated with the compound vehicle DMSO are used as positive controls and cells treated with 10 μM Staurosporine serve as negative controls. At day 5 the CellTiter Glo Reagent is prepared according to the instructions of the kit (Promega Inc.): Reagent is mixed 1:1 with cell culture medium. Thereon, mixture and assay plates are equilibrated at room temperature for 20 min. […] Following incubation the luminescence is recorded on a Victor microplate reader (Perkin Elmer) using a 200 ms integration time. The data is then analyzed with Excel using the XLFIT Plugin (dose response Fit 205) for IC50-determination. As quality control the Z′-factor is calculated from 16 positive and negative control values. […]
(§3) Inhibition is indicated as […] [nM] (“−”=not measured). […]
In general terms: Cellular ATP, detected with luciferase, serves as a proxy for viable cell number.

In the next series the target is EGFR T790ML858R (Homo sapiens, UniProt P00533, L858R/T790M). Kind of series: EGFR T790ML858R Lance assay. Conditions: read-out: EGFR T790M L858R Lance IC50. Here is the method: (§4) Inhibition is indicated as […] [nM] (“−”=not measured). Compounds having an activity designated as “A” provided an IC50≤100 nM; compounds having an activity designated as “B” provided an 100 nM<IC50≤500 nM; compounds having an activity designated as “C” provided an 500 nM<IC50≤1000 nM; compounds having an activity designated as “D” provided an 1000 nM<IC50≤100000 nM; and compounds having an activity designated as “E” provided an IC50>10000 nM.

For series [1], the target named is Her2 Exon 20 INSYVMA Ba/F3 (Homo sapiens, UniProt P04626, DUP772-775, cells depend on it). Kind of series: Her2 Exon 20 INSYVMA Ba/F3 CellTiter-Glo. Here is the method: as §1, §2
(§5) Inhibition is indicated as IC50 [nM] (“−”=not measured). […]

The next series relates to H1781. The experiment in a line: H1781 CellTiter-Glo. Conditions: read-out: H1781 CTG IC50; 72 h compound incubation; tested form: TFA. Here is the method:
as §1, §2, §3

Series [2] is described as follows: Metabolic stability in mouse liver microsomes without cofactor NADPH. The conditions noted are these: 3 μM test compound, 37° C., LC-MS/MS, tested form: TFA. From the text:
There are two major groups of enzyme reactions catalyzed by drug metabolizing enzymes, the so called Phase I and Phase II reactions. The basic processes in phase I reactions are oxidation, reduction and/or hydrolysis mostly catalyzed by the cytochrome P450 (CYP) family of enzymes. Exploring the metabolic stability of reference 1 we have observed as a major metabolite the hydrolysis of the acrylamide moiety in the presence of mouse liver microsomes with and without the cofactor NADPH.
The following procedures describe the determination of the in vitro Phase I metabolic stability of test compounds using liver microsomes by measuring compound depletion over time. Test compound at the concentration of 3 μM was incubated with the liver microsomes from the mouse species and the experiment was performed without NADPH. The depletion of the test compounds was measured over time up to 50 minutes at 37° C. by LC-MS/MS. Different compounds were tested under these conditions for microsomal stability (see Table 5). Prevention of hydrolysis of the acrylamide moiety was achieved either by the introduction of substituents like a methyl group (as in Example 1) next to the acrylamide moiety or by modifying the secondary acrylamide of reference 1 to a tertiary acrylamide (like Example 55).
(In general: Microsomes from liver hold many membrane-bound enzymes, among them those of drug oxidation.)

Another series concerns the target EGFR wt (Homo sapiens, UniProt P00533). Kind of series: EGFR wt Lance assay. Conditions: read-out: EGFR wt Lance IC50. The protocol:
as §4

The target in series [3] is EGFR Exon 20 INSNPH Ba/F3 (Homo sapiens, UniProt P00533, DUP771-773, cells depend on it). Kind of series: EGFR Exon 20 INSNPH Ba/F3 CellTiter-Glo. The protocol: as §1, §2, §5
The next series has as its system H1975. Kind of series: H1975 CellTiter-Glo. The conditions noted are these: read-out: H1975 CTG IC50, 72 h compound incubation. Here is the method: as §1, §2, §3
The next series has as its target HER2 INS YVMA (Homo sapiens, UniProt P04626, INS775YVMA). The experiment in a line: Lance Kinase Activity Assay, HER2 INS YVMA (Her2 Exon 20 INSYVMA Lance). The conditions noted are these: read-out: Her2 Exon 20 INSYVMA Lance IC50, biochemical Lance assay. Here is the method:
1. Measurement of HER2 INS YVMA Kinase Activity
This protocol describes how the Lance Kinase Activity Assay was performed to determine IC50 values of compounds of general formula (I) against HER2 INS YVMA. The principle behind this enzymatic assay is based upon the phosphorylation of the Ulight-peptide substrate. It is detected by using a specific EU-labeled anti-phospho peptide antibody. The binding of the Eu labeled anti-phospho peptide antibody to the phosphorylated ULight labeled peptide gives rise to a FRET-signal.
Binding of an inhibitor to the kinase prevents phosphorylation of the Ulight-substrate, resulting in a loss of FRET. In table 2 is summarized the relevant information for the LANCE assay. […]
For every sample, 8 μl of kinase-substrate mix was transferred into a suitable assay plate (e.g. Corning #3673). […] After a second incubation period of 1 h at room temperature the FRET signal was measured at 340 nm excitation, 665 nm and 615 nm emission (for the ULight-substrate and Eu-AB, respectively) with an Envision spectrophotometer (Perkin Elmer, Waltham, Mass., USA) with 50 μs delay and 300 μs integration time. IC50 values were determined from the sigmoidal dose response curves with the software Quattro Workflow (Quattro GmbH, Munich, Germany).

Molecules are shown by their SMILES. Read-outs that look alike come from different tables or passages of the source. The structures given here were assigned with low confidence; some may be wrong.

As to `C=CC(=O)Nc1cc(-c2c(-c3ccc(N4CCN(C)CC4)cc3)[nH]c3nccc(OC)c23)ccc1C`, the concentration for half-maximal inhibition (IC50) in the series on A431 (tested form: TFA) is 100 to 500 nM; at EGFR T790ML858R (tested form: TFA) it was less than 100 nM; with H1781, 100 to 500 nM; at EGFR wt (tested form: TFA), less than 100 nM; in the series on H1975 (tested form: TFA) it was less than 100 nM; on HER2 INS YVMA (tested form: TFA), less than 100 nM. Besides, the GI50 was less than 100 nM in [1] (read-out: Her2 Exon 20 INSYVMA Ba/F3 CTG IC50, 72 h, tested form: TFA) and less than 100 nM in series [3] (read-out: EGFR Exon 20 INSNPH Ba/F3 CTG IC50, 72 h, tested form: TFA). In addition, in series [2], the “Stability in presence of mouse liver microsomes without cofactor NADPH [% remaining after 50 min]” value was greater than 99 % remaining after 50 min.

As for `C=CC(=O)Nc1cc(-c2c(-c3ccc(N4CCN(C)CC4)cc3)[nH]c3ncc(CC(=O)NC)cc23)ccc1C`, the IC50 was 1000 to 100000 nM with A431; less than 100 nM at EGFR T790ML858R; less than 100 nM on EGFR wt; 1000 to 100000 nM in the series on H1975; less than 100 nM on HER2 INS YVMA. In addition, the GI50 is less than 100 nM in [1] (read-out: Her2 Exon 20 INSYVMA Ba/F3 CTG IC50, 72 h) and 1000 to 10000 nM in series [3] (read-out: EGFR Exon 20 INSNPH Ba/F3 CTG IC50, 72 h).

The IC50 is the concentration needed to halve the response being measured.
